PubChem BioAssay AID743454 | Peter MacCallum Cancer Centre – 2014
Aim: 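Genes whose loss kills vorinostat-resistant colon cancer cells under vorinostat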 (primary screen). System: human HCT116-VR colon cancer cells, selected for vorinostat resistance. Reagent: siRNA pool against human genes, 40 nM siRNA pool. Duration: vorinostat for 24 h, read-out about 72 h after transfection. Conditions: vorinostat at 2.5 µM final. Measurement: 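Cell viability by CellTiter-Fluor and caspase 3/7 activity by luminescence, each scaled to mock wells per plate, duplicates averaged, then robust z-scored over all plates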. Direction: viability robust z-score: higher = more viable cells than screen typical; caspase robust z-score: higher = more caspase 3/7 activity than screen typical. Hit rule: 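Hits are knock-downs in viability class RV1/RV2 or caspase class CA1/CA2, excluding ones that killed cells in the no-drug cell-count arm; hits then retested with single siRNAs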.
This is a random part of about 18,000 reagents tested. 450 of them (2.5%) were called active. 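Single biological run; no consistent viability z cut-off exists, so the class columns, not z-scores, define the calls.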

Gene,viability hit class,caspase hit class,viability robust z-score,caspase robust z-score,Call
MATN1 (matrilin 1),no change,no change,1.09,0.52,inactive
MMP16 (matrix metallopeptidase 16),no change,no change,0.03,-0.47,inactive
SS18L1 (SS18L1 subunit of BAF chromatin remodeling complex),no change,no change,0.13,1.47,inactive
MARCHF9 (membrane associated ring-CH-type finger 9),no change,no change,-1.21,3.6,inactive
IMP3 (IMP U3 small nucleolar ribonucleoprotein 3),no change,no change,-1.22,0.26,inactive
NEUROD2 (neuronal differentiation 2),no change,no change,-0.72,1.07,inactive
PRTFDC1 (phosphoribosyl transferase domain containing 1),no change,no change,0.62,-0.66,inactive
CNTF (ciliary neurotrophic factor),no change,no change,0.46,-0.23,inactive
MRGPRF (MAS related GPR family member F),no change,no change,0.14,2.53,inactive
DRGX (dorsal root ganglia homeobox),no change,no change,-0.9,-0.33,inactive
ASCL1 (achaete-scute family bHLH transcription factor 1),no change,no change,0.01,-0.91,inactive
DEFB135 (defensin beta 135),no change,no change,0.41,0.34,inactive
HMGB4 (high mobility group box 4),no change,no change,-0.39,-0.29,inactive
"FGD5 (FYVE, RhoGEF and PH domain containing 5)",no change,no change,1.06,1,inactive
CSGALNACT1 (chondroitin sulfate N-acetylgalactosaminyltransferase 1),no change,no change,-1.94,1.33,inactive
"CKMT1B (creatine kinase, mitochondrial 1B)",no change,no change,0.37,-0.86,inactive
DAOA (D-amino acid oxidase activator),no change,no change,0.64,-0.66,inactive
CLEC12B (C-type lectin domain family 12 member B),no change,no change,1.15,-0.03,inactive
DPCD (deleted in primary ciliary dyskinesia homolog (mouse)),no change,no change,-1.02,7.2,inactive
KCNB1 (potassium voltage-gated channel subfamily B member 1),no change,no change,-2.19,0.79,inactive
CELSR1 (cadherin EGF LAG seven-pass G-type receptor 1),no change,no change,0.06,1.02,inactive
RECQL5 (RecQ like helicase 5),no change,no change,1.1,-0.15,inactive
FECH (ferrochelatase),no change,no change,-1.05,-1.32,inactive
RIPPLY3 (ripply transcriptional repressor 3),no change,no change,0.37,-0.02,inactive
IQCF1 (IQ motif containing F1),no change,no change,-0.2,-0.13,inactive
WRAP53 (WD repeat containing antisense to TP53),no change,no change,0.01,0.4,inactive
KIFBP (kinesin family binding protein),no change,no change,-0.8,2.82,inactive
C1D (C1D nuclear receptor corepressor),no change,no change,1.48,0.86,inactive
QTRT1 (queuine tRNA-ribosyltransferase catalytic subunit 1),RV2 (reduced viability),no change,-3.39,2.68,active
SLC37A1,no change,no change,1.27,2.34,inactive
"GPAT2 (glycerol-3-phosphate acyltransferase 2, mitochondrial)",no change,no change,1.38,1.08,inactive
SDC3 (syndecan 3),no change,no change,0.1,1.7,inactive
PSMG1 (proteasome assembly chaperone 1),no change,no change,1.29,-0.66,inactive
ZZZ3 (zinc finger ZZ-type containing 3),no change,no change,-1.58,-0.08,inactive
POPDC2 (popeye domain cAMP effector 2),no change,no change,-1.36,3.73,inactive
PDSS2 (decaprenyl diphosphate synthase subunit 2),no change,no change,0.84,-0.34,inactive
ACSM6 (acyl-CoA synthetase medium chain family member 6),no change,no change,-0.14,-0.86,inactive
CYP7B1 (cytochrome P450 family 7 subfamily B member 1),no change,no change,-0.1,-0.57,inactive
"TGDS (TDP-glucose 4,6-dehydratase)",no change,no change,-2.05,3.15,inactive

4 entries from above, set out differently.
Gene | viability hit class | caspase hit class | viability robust z-score | caspase robust z-score | Call
WRAP53 (WD repeat containing antisense to TP53) | no change | no change | 0.01 | 0.4 | inactive
KIFBP (kinesin family binding protein) | no change | no change | -0.8 | 2.82 | inactive
C1D (C1D nuclear receptor corepressor) | no change | no change | 1.48 | 0.86 | inactive
QTRT1 (queuine tRNA-ribosyltransferase catalytic subunit 1) | RV2 (reduced viability) | no change | -3.39 | 2.68 | active
